Results are given in words; binding and its absence hold for the method and conditions named. Some binding calls cover weakened binding; strength is not graded here.
Assays:
Assay in all cases: peptide or protein array; HuProt human proteome microarray; 5 ug/5 ml biotin-labelled LUBAC or OTULIN in solution, 1 h at room temperature; Cy5-streptavidin, scanned at 635 nm; BSA as negative control; hits: Z-score >= 3 and I_(Mean_Ratio) >= 1.4; both purified
[1] = molecular target: T1, RBM3 (human) (UniProt P98179)
T1 sequence: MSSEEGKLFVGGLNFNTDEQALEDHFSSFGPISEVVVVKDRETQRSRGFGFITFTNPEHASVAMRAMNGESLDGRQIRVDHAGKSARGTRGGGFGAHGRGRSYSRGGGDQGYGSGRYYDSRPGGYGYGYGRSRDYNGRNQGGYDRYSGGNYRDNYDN

Protein sequences, listed by entry. Tags and fused reporters are not part of them.
UniProt O00308: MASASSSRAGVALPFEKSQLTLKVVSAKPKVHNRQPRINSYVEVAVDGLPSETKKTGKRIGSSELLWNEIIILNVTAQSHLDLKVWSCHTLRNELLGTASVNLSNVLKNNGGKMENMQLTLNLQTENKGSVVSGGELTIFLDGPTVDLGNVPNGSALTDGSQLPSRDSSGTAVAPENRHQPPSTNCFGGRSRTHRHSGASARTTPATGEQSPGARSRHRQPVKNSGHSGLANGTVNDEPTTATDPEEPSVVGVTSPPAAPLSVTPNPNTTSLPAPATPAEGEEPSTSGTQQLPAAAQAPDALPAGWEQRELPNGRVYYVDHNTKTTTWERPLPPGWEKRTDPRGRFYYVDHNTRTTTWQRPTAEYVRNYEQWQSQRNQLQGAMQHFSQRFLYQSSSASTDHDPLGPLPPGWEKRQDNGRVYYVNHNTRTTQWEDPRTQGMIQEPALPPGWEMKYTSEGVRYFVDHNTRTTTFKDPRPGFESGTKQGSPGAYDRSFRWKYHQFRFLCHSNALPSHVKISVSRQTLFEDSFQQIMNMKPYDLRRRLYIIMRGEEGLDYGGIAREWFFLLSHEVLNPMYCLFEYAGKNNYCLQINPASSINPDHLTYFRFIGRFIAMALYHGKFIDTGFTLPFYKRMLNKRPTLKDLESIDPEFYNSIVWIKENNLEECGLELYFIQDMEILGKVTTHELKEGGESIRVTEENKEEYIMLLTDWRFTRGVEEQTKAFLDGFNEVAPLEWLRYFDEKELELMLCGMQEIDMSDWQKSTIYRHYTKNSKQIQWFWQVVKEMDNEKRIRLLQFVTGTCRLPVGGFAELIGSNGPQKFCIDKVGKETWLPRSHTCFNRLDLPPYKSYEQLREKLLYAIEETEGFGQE
UniProt Q9C0C7: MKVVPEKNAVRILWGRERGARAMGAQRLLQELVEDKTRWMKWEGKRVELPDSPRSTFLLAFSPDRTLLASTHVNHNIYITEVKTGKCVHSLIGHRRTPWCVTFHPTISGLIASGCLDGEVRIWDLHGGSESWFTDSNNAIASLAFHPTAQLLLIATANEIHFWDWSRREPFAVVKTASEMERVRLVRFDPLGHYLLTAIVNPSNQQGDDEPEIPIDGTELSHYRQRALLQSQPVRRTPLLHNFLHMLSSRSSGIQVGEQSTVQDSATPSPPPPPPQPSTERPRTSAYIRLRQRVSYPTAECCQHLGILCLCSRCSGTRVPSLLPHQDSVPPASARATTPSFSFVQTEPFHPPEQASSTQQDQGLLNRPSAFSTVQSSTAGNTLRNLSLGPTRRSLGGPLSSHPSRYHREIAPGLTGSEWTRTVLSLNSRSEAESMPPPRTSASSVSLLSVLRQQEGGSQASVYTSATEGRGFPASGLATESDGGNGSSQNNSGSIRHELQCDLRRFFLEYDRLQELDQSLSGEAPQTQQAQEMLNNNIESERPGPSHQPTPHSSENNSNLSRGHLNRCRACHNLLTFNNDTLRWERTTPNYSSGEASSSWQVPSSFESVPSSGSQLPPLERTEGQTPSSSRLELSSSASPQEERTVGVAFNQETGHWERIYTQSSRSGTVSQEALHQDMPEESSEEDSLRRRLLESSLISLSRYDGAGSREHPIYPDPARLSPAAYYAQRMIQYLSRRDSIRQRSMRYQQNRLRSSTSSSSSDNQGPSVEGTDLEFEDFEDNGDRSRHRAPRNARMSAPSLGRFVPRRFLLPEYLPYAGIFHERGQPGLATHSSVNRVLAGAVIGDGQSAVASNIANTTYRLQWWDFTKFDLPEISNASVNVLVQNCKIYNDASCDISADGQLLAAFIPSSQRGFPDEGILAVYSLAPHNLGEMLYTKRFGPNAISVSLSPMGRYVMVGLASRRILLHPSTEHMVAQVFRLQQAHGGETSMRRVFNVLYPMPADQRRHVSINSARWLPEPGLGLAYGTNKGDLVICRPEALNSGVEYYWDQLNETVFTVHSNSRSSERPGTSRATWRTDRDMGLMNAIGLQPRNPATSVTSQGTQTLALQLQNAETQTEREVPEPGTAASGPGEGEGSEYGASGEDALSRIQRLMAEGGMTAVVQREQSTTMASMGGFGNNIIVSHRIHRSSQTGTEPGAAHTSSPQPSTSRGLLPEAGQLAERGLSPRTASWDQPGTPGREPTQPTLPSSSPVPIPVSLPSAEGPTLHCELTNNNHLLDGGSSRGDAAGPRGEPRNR

[2] = molecular target: T2, DCX (human) (UniProt O43602)
T2 sequence: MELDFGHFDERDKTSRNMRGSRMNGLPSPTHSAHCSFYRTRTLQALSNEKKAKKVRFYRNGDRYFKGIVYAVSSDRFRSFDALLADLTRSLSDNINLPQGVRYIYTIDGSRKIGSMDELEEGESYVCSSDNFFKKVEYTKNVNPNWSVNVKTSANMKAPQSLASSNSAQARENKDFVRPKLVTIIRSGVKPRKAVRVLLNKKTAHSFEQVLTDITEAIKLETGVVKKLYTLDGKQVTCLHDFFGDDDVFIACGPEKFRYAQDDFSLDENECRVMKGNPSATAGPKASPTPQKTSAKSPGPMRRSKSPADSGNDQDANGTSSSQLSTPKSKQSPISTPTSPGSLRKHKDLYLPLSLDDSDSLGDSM

[3] = molecular target: WWP2 (spot on the microarray) (human) (UniProt O00308)
[4] = molecular target: T3, PPP1R13L (human) (UniProt Q8WUF5)
T3 sequence: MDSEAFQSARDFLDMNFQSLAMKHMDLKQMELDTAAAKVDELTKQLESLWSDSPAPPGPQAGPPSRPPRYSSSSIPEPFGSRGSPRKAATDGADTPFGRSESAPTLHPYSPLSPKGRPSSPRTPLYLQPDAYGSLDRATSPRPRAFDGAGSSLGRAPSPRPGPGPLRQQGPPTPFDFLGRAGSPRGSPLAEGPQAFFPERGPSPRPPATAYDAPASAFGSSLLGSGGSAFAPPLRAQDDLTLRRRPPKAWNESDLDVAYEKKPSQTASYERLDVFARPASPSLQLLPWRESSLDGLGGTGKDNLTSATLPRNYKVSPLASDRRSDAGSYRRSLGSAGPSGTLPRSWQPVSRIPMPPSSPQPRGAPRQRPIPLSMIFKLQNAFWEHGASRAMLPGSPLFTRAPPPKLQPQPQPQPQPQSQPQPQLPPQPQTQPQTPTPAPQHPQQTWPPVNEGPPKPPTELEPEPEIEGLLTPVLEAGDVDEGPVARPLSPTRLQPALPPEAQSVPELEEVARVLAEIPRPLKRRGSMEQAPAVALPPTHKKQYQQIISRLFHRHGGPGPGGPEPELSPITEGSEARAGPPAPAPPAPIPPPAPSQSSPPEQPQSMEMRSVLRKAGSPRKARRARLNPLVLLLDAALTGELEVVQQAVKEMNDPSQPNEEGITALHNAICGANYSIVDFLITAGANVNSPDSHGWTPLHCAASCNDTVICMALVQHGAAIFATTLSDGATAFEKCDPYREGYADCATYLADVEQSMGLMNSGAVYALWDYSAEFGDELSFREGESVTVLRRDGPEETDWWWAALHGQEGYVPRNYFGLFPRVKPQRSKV

[5] = molecular target: AMBRA1 (human) (UniProt Q9C0C7)
[6] = molecular target: T4, COASY (human) (UniProt Q13057)
T4 sequence: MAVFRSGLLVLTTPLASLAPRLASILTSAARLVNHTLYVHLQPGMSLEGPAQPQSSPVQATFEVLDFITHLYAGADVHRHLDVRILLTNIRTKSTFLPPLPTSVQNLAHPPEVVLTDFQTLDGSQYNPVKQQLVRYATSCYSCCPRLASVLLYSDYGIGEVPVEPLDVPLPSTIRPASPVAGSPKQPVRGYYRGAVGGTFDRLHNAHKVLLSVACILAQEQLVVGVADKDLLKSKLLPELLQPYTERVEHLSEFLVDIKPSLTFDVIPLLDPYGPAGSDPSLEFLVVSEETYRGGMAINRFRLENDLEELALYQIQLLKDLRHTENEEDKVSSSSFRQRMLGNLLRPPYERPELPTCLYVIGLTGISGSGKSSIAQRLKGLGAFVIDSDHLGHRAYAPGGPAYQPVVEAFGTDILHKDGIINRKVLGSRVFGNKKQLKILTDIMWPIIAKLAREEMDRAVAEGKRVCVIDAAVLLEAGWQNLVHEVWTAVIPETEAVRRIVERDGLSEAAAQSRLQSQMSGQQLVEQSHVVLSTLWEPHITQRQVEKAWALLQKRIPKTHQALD

Measured: binding

linear ubiquitin chain assembly complex (LUBAC), purified as HIS-tagged HOIP with the subunit HOIL-1, biotin-labelled (from UniProt Q96EP0 1-1072; Q9BYM8 1-510)
binds: all assays above

From publication PMC8274477
